This is an account of results in publication PMC7215670.

This assay addresses T1, LEA29 (Arabidopsis thaliana), Q9LW12.
T1 chain: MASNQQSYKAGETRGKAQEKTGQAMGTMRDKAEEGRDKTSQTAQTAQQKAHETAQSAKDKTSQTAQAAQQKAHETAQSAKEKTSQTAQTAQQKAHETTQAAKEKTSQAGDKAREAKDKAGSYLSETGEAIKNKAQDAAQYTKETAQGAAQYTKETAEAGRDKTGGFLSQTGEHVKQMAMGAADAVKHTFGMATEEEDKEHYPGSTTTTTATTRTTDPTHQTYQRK
The assay can be described thus: static and dynamic light scattering (SLS/DLS); protein alone in solution, fully hydrated conditions; apparent mass and hydrodynamic radius as a function of concentration, extrapolated to infinite dilution; 23 °C, scattering angle 90°; both purified. The note with it: remark: other sources report otherwise.

No constants are given. Whether binding was seen depends on the method and setting.

B1: LEA29, Q9LW12 1-225 (protein)
chain: T1 chain
Turning to B1, the binding result is given as “no binding”.
